Reference: PubChem BioAssay (Tox21)
Where “and” joins values, the source holds several entries; their conditions need not be identical. Equal entries are not always repeated. Most of the hits are listed elsewhere, so they are rarer here than in the full data. Inconclusive results are not listed. Calls of active or inactive are those of the source. Unless noted, calls follow the shape of the full dose curve.

Sequences of proteins named here, by UniProt entry; tags and fusion partners are left off. A change or cut given only in a name is not applied to a line headed by its entry.
UniProt P30968: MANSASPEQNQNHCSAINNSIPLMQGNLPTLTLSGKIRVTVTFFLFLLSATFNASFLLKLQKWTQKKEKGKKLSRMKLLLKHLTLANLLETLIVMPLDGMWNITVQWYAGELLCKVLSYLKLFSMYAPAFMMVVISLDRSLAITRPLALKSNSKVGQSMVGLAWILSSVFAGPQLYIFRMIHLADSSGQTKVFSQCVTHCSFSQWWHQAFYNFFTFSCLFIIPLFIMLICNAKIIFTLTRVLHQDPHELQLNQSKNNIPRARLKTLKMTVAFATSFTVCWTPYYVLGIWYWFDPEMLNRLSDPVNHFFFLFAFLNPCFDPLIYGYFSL
UniProt Q969F8, whole entry, looked up: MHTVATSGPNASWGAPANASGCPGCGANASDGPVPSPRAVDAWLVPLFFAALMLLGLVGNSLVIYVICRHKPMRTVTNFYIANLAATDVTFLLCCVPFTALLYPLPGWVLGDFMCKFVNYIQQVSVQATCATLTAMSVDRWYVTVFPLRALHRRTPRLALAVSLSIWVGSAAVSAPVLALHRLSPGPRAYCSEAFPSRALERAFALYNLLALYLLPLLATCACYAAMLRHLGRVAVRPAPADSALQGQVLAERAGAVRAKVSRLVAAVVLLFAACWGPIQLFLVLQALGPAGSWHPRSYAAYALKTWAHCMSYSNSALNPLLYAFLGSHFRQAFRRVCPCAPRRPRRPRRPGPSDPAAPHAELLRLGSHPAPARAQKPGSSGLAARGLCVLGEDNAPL

Legend:
[1] = molecular target: Gonadotropin-releasing hormone receptor (Homo sapiens) (UniProt P30968); test: Human gonadotropin-releasing hormone receptor (GnRHR) small molecule agonists, calcium flux assay in GnRHR-HEK293 cells (AID 1920063); conditions: calcium flux fluorescence, agonist mode, active compounds read high; at 57.6 µM (top of the series); also: nearly all actives have a fitted effect of over 35% in size
Source text: National Center for Advancing Translational Sciences [NCATS]
Division of Preclinical Innovation [DPI]
U.S. Environmental Protection Agency [EPA]
National Institutes of Environmental Health Sciences [NIEHS]
National Toxicology Program [NTP]
U.S. Food and Drug Administration [FDA]
Gonadotropin-releasing hormone receptor (GnRHR) is a G-protein-coupled receptor (GPCR) and acts (through phospholipase C) to increase intracellular inositol trisphosphate and then release intracellular calcium stores. Cell-based GnRHR-Hek293 calcium influx assay is using HEK293 cells that have been genetically engineered to express the human GnRHR, which activity can be measured by calcium signaling. A compound/drug can activate (agonist) GnRHR that can be monitored by levels of intracellular calcium.
GnRHR-HEK293 cells developed by Codex Corp contain human GnRHR reporter gene, which was stably integrated into HEK 293 cells. The compound activation can be detected by fluorescence intensity via calcium flux assay. This cell line has been used to screen the Tox21 10K compound library to identify GnRHR agonists.
GnRHR-Hek293 cells were dispensed at 1500cells/4uL/well in 1536-well black wall/clear bottom plates using a multidrop dispenser. After the assay plates were incubated at a 37 C/5% CO2 incubator for 18 hours, 4 uL of Calcium Dye Solution was added to each well. The plates were incubated at 37 C for 1 hour. For agonist mode, 23 nL of compounds dissolved in DMSO, positive controls or DMSO only was transferred to the assay plate by a pin tool station. The fluorescence intensity in the plates was measured using FDSS 7000EX kinetic plate reader with a filter set of Ex/Em=480/540 for 3 min at 1 sec intervals. Each test compound was measured at 15 concentrations and in triplicates.

[2] = molecular target: KiSS-1 receptor (Homo sapiens) (UniProt Q969F8); test: Human kisspeptin (KISS1R) small molecule agonists, calcium flux assay in KISS1R-HEK293 cells (AID 1920064; active = well fitted activation curve with a large enough effect in the repeat runs); conditions: KISS1R-HEK293, calcium flux fluorescence, agonist; at 76.8 µM (top of the series)
In short: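 HEK293 cells stably expressing human KISS1R were plated 18 h at 37 °C, loaded with calcium dye for 1 h at 37 °C, then given compound by pin tool. Fluorescence (Ex/Em 480/540) was read kinetically for 3 min.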

[3] = G protein-coupled receptor (GPCR) small molecule agonists, calcium flux assay: HEK293 wild type cell line counter screen (AID 1920065); conditions: HEK293 WT calcium flux, fluorescence, agonist mode; at 57.6 µM (top of the series)
In short: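 Cells were plated and cultured 18 h at 37 C/5% CO2, then loaded with calcium dye for 1 h at 37 C. Compounds in DMSO were pin-transferred in agonist mode, and fluorescence (Ex/Em 480/540) was read kinetically for 3 min at 1 s intervals.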

[4] = cAMP Responsive Elements (CRE) small molecule antagonists, cell-based qHTS assay (AID 1963591; active = well fitted inhibition curve with a large enough effect in the signal ratio in the repeat runs, not every such curve was filed as active; the % refers to the signal ratio); conditions: CRE-bla HEK293T, beta-lactamase FRET ratio; at 92.4 µM (top of the series)
In short: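 CRE-bla HEK293T cells were plated 18 h at 37 °C/5% CO2, pinned with compound in DMSO, then stimulated with NKH477 at 0.25 uM final for 3 h. LiveBLAzer B/G FRET substrate was added and plates incubated 2 h at room temperature.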

[5] = cAMP Responsive Elements (CRE) small molecule agonists, cell-based qHTS assay (AID 1963590); conditions: CRE-bla HEK293T, beta-lactamase FRET ratio, 3 h; at 92.4 µM (top of the series)
In short: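 CRE-bla HEK 293T cells in DMEM with 10% dialyzed FBS, NEAA, pyruvate and 25 mM HEPES were plated 18 h at 37 C/5% CO2, then exposed to compounds in DMSO for 3 h before LiveBLAzer B/G FRET substrate addition.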
% is scaled to controls: 0 for no effect and ±100 for the full control effect.

CCCCCCCC1CCC(=O)O1 (stereo not given)
inactive: activity change [1] -0.104% | activation [2] -2.65% | activation [3] -1.87% | activity change, negative = inhibition [4] 10.5%

CC(=O)N(C)C
inactive: activity change [1] 1.14% and 2.32% | activation [2] -0.572% and 0.594% | activation [3] 0.0601% and 0.285% | activation [5] -2.01% and 0.18% | activity change, negative = inhibition [4] -6.43% and -4.81%

CS(=O)(=O)c1ccc([C@@H](CC2CCCC2)C(=O)Nc2cnccn2)cc1Cl
inactive: activity change [1] 2.22% | activation [2] 8.43% | activation [3] 3.1%

Nc1ccc(N)c([N+](=O)[O-])c1
inactive: activity change [1] 2.87% | activation [2] -6.55% | activation [3] 3.01%

O=C1Cc2ccccc2C1
inactive: activity change [1] -0.578% | activation [2] 2.04% | activation [3] 0.983% | activation [5] -0.0832% | activity change, negative = inhibition [4] 4.95%

COc1ccc2ccccc2c1
inactive: activity change [1] -1.7% | activation [2] -9.7% | activation [3] -0.162% | activation [5] 0.623% | activity change, negative = inhibition [4] -11.3%
